Test results taken from patent US10555989B2, “Treatment of learning disabilities and other neurological disorders with SK channel inhibitor(s)” (priority 2015, dated 2020).

System: KCNN2
Details: EtOH- vs PBS-exposed mice, P30; P=0.006

Compound: CCO [EtOH, ethanol]
- number of KCNN2+ cells in layers II/III in M1 cortex (FIG. 3B): More
